The target of this assay is Cyclin dependent kinase 10 (human (endogenous in HCEC)) (UniProt Q15131). As to the kind of experiment: co-IP; protein extracts of HCEC, migrating (18 hours post wounding) and non-migrating; precleared with protein A Sepharose, incubated overnight at 4 °C with anti-cdk10 and protein A-agarose; blot probed with anti-cdk10, stripped and probed with anti-ETS2.

Amino acid sequences for entries named in this document (tags omitted).
UniProt Q15131: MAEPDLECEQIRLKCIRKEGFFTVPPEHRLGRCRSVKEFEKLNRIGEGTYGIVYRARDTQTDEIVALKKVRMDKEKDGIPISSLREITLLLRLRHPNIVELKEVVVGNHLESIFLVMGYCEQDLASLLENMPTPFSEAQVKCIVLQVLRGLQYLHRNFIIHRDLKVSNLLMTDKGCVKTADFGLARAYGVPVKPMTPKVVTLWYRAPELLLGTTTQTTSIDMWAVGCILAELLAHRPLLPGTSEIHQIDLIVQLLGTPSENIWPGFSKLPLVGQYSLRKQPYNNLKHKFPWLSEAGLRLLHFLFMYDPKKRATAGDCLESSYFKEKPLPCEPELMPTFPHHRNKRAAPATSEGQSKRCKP

No constants are given. Whether binding was seen depends on the method and setting. Binding seen in cells or lysates may run through a third protein. Some binding calls cover weakened binding; strength is not graded here.

B1: V-ets erythroblastosis virus E26 oncogene homolog 2 (avian) (protein, UniProt P15036 1-469)
chain: MNDFGIKNMDQVAPVANSYRGTLKRQPAFDTFDGSLFAVFPSLNEEQTLQEVPTGLDSISHDSANCELPLLTPCSKAVMSQALKATFSGFKKEQRRLGIPKNPWLWSEQQVCQWLLWATNEFSLVNVNLQRFGMNGQMLCNLGKERFLELAPDFVGDILWEHLEQMIKENQEKTEDQYEENSHLTSVPHWINSNTLGFGTEQAPYGMQTQNYPKGGLLDSMCPASTPSVLSSEQEFQMFPKSRLSSVSVTYCSVSQDFPGSNLNLLTNNSGTPKDHDSPENGADSFESSDSLLQSWNSQSSLLDVQRVPSFESFEDDCSQSLCLNKPTMSFKDYIQERSDPVEQGKPVIPAAVLAGFTGSGPIQLWQFLLELLSDKSCQSFISWTGDGWEFKLADPDEVARRWGKRKNKPKMNYEKLSRGLRYYYDKNIIHKTSGKRYVYRFVCDLQNLLGFTPEELHAILGVQPDTED
On to B1, for which the binding entry is on record as “binds”.

Source of the values: paper PMC6694192.
